Results are given in words; binding and its absence hold for the method and conditions named. Some results given as binding are weak or reduced against the parent protein; the word gives no strength.
Molecular target: Arabidopsis AtFT (FLOWERING LOCUS T), yeast two-hybrid fusion (Arabidopsis thaliana) (UniProt Q9SXZ2)
Assay: two-hybrid; GAL4 system; bait in pGBKT7, prey in pGADT7; co-transformed yeast grown on SD/-Leu/-Trp, then on quadruple dropout medium (SD/-Leu/-Trp/-His/-Ade + x-α-gal; methods: with 20 mM 3-AT), 30 °C

Chains of the proteins cited; added tags and fusions are not shown.
UniProt Q9SXZ2: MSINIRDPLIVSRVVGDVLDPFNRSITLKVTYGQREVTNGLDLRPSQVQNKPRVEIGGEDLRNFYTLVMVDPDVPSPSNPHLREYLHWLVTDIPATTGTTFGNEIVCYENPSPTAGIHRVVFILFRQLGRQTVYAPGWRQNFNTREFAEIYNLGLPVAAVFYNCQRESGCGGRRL
UniProt P35631: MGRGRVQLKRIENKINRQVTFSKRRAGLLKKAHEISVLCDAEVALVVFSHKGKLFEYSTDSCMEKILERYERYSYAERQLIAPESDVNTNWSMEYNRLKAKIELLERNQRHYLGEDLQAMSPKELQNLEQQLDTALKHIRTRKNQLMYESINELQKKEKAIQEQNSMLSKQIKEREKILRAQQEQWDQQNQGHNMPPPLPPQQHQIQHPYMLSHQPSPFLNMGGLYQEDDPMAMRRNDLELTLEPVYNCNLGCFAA

With “Arabidopsis AtAP1 (APETALA1), yeast two-hybrid fusion (from UniProt P35631 1-256)” the binding was “binds”.
